Results as given in article PMC7513309.
Results are given in words; binding and its absence hold for the method and conditions named. A result given as binding can be weak or reduced; the word gives no strength.

Molecular target: PpATG3 (Physcomitrella patens)
Assay: two-hybrid; yeast two-hybrid (Clontech); PpATG3 in the bait vector pGBKT7 (BD), PpATG7 or PpATG12 in the prey vector pGADT7 (AD)

Row | Substance | binding
1 | PpATG7 (from UniProt A0A2K1IFZ5) (enzyme) | binds
2 | PpATG12 (from UniProt A9SPY8) | binds
